# The list shows a part of the results.
# Biological target: T1, OsSMF1 (Oryza sativa, UniProt Q6ZLB0 1-436)
# T1 sequence: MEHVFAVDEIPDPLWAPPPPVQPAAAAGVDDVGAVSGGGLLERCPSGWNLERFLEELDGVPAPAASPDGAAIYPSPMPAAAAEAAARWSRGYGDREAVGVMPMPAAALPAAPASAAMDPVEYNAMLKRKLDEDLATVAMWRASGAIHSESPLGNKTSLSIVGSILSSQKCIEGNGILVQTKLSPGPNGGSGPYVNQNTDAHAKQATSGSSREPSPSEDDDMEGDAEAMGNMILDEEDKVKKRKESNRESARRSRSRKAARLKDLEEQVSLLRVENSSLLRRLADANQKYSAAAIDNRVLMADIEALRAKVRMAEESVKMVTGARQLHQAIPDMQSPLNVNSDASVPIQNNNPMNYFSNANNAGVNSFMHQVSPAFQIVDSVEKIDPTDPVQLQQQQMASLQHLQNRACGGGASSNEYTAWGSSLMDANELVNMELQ
# Experiment: protein-binding microarray (RPBM); PBS, 2% BSA, 51.3 ng/ul salmon testes DNA, 50 uM zinc acetate, 200 nM TF, 25 C, 1 h; high values mean tight binding
# Conditions: protein: recombinant; tags: N-terminal polyhistidine and DsRed monomer fusion (pET32a); chain copies: 2; label: CyDye5-dUTP incorporated in the synthesized complementary strand; 3' TTTTT single-stranded linker to array surface; dsDNA, one strand shown
# Summary of the method: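 The binding signal for each feature is its fluorescence intensity in arbitrary units. An Axon 4000B scanner was used to read a custom Agilent array that had been made double-stranded with Cy5-dUTP primer extension, blocked with 2% BSA, incubated at 25 °C for 1 h with 200 nM protein in PBS, 2% BSA, salmon testes DNA and 50 µM zinc acetate, and washed. The protein was an N-terminal polyhistidine–DsRed transcription factor fusion from E. coli BL21-CodonPlus, purified on Ni–NTA.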
row,Sequence,binding signal
1,ATTTAGAACGCAGGAATTTCCACGTTTGATCGTAGACCCACGGAGTCACCTAGTGCAG,3780 fluorescence intensity (a.u.)
2,GCATCGCAGCCGCTATCCGCGTGGGCATTCCGCCGAGCACCGGAGTCACCTAGTGCAG,4280 fluorescence intensity (a.u.)
3,AGCTACGCTACGGCCCCACCCAACTGCTCTTCCTACGCGCCGGAGTCACCTAGTGCAG,3160 fluorescence intensity (a.u.)
4,TCCCTTTCGGCCTCGCCTTCCTTCCTTGCGACTCAGGTCACGGAGTCACCTAGTGCAG,3530 fluorescence intensity (a.u.)
5,TTAATTTATGGCGCTGGCCGTCAGCCGGTTGTGGTATGTTCGGAGTCACCTAGTGCAG,3790 fluorescence intensity (a.u.)
6,ACTAAATGAGATCACTGATGACACAACACATATGACTCTTCGGAGTCACCTAGTGCAG,4310 fluorescence intensity (a.u.)
7,TCTATACTGTTCCACGTCAAATTACCATTCTACCCTCCATCGGAGTCACCTAGTGCAG,9250 fluorescence intensity (a.u.)
8,TTAATTAATTATGCTAAATGGATATAGTTTGATTCGATCACGGAGTCACCTAGTGCAG,3440 fluorescence intensity (a.u.)
9,CGAGGCGAGCAAAGCGTGACGTGGCCACCTTCCCCGCCGCCGGAGTCACCTAGTGCAG,32600 fluorescence intensity (a.u.)
10,TCACCTGTCCTCCTTGGTCCAACTATGTCGAGAATCGATGCGGAGTCACCTAGTGCAG,3220 fluorescence intensity (a.u.)
11,GTTCTGGAGTCCATCCTCTCGGTCTTTAGCTGGCGTTACCCGGAGTCACCTAGTGCAG,20400 fluorescence intensity (a.u.)
12,GATAACCACATCATCTAAGAACGGAATGCCTTGTGCAAATCGGAGTCACCTAGTGCAG,4260 fluorescence intensity (a.u.)
13,GCGCCGCCGGCACGGCGCCTCCTACGTGTTCGACGGAATGCGGAGTCACCTAGTGCAG,3310 fluorescence intensity (a.u.)
14,AAGTAGATGCAGGCGCCACCACGACTTTGATCGAGTTCTACGGAGTCACCTAGTGCAG,4090 fluorescence intensity (a.u.)
15,TGACAACGGGGAGGGGAGGATGGGGCGGCGACGACAGGGGCGGAGTCACCTAGTGCAG,3580 fluorescence intensity (a.u.)
16,GGACGCTTACGCCGTGCCCGCTCTCGTGTCACTGCCTCATCGGAGTCACCTAGTGCAG,6040 fluorescence intensity (a.u.)
17,CTCAGTATATATGTTTTGAATTCATTATGACATCTTTACACGGAGTCACCTAGTGCAG,3360 fluorescence intensity (a.u.)
18,CTTGCCTCCGCCCATAAATACCACCCGCATTGGCGTTCAGCGGAGTCACCTAGTGCAG,50900 fluorescence intensity (a.u.)
19,AACTTGCGTTGACCACCCACGGGAACCATTCGTCAGATCCCGGAGTCACCTAGTGCAG,3880 fluorescence intensity (a.u.)
20,CTCGGCACGGTGGGCCGGCCCGGTACGGCCCAATCAAATACGGAGTCACCTAGTGCAG,10900 fluorescence intensity (a.u.)
21,CCTGTCACCTGTGTGCACTGTGATTCCCGTGATCATGTCCCGGAGTCACCTAGTGCAG,24700 fluorescence intensity (a.u.)
22,CACACATATATATGCCACATCTTCTCTCTCTCTCTCTCCTCGGAGTCACCTAGTGCAG,3660 fluorescence intensity (a.u.)
23,CCTCTCCAGTACGCGTCGCCCCGCCACGTCAGCGACTGGCCGGAGTCACCTAGTGCAG,41600 fluorescence intensity (a.u.)
24,GATTACCCTGTTGCATTGTTATACTAATTATACGGTCACACGGAGTCACCTAGTGCAG,3200 fluorescence intensity (a.u.)
25,CGCAACATCACCCTCGCCTTCTCTCTTTCTTCCGGCTTCCCGGAGTCACCTAGTGCAG,3740 fluorescence intensity (a.u.)
26,TAGAGTTTGCAATTGATATATGATGTGACATACTTATTTTCGGAGTCACCTAGTGCAG,3350 fluorescence intensity (a.u.)
27,TCCACCCCAGCCGTCGACGCCGCCGTCACCCACCCGCAACCGGAGTCACCTAGTGCAG,3410 fluorescence intensity (a.u.)

# A second format for some results above:
row	Sequence	binding signal
1	ATTTAGAACGCAGGAATTTCCACGTTTGATCGTAGACCCACGGAGTCACCTAGTGCAG	3780 fluorescence intensity (a.u.)
2	GCATCGCAGCCGCTATCCGCGTGGGCATTCCGCCGAGCACCGGAGTCACCTAGTGCAG	4280 fluorescence intensity (a.u.)
3	AGCTACGCTACGGCCCCACCCAACTGCTCTTCCTACGCGCCGGAGTCACCTAGTGCAG	3160 fluorescence intensity (a.u.)
4	TCCCTTTCGGCCTCGCCTTCCTTCCTTGCGACTCAGGTCACGGAGTCACCTAGTGCAG	3530 fluorescence intensity (a.u.)
5	TTAATTTATGGCGCTGGCCGTCAGCCGGTTGTGGTATGTTCGGAGTCACCTAGTGCAG	3790 fluorescence intensity (a.u.)
6	ACTAAATGAGATCACTGATGACACAACACATATGACTCTTCGGAGTCACCTAGTGCAG	4310 fluorescence intensity (a.u.)
7	TCTATACTGTTCCACGTCAAATTACCATTCTACCCTCCATCGGAGTCACCTAGTGCAG	9250 fluorescence intensity (a.u.)
8	TTAATTAATTATGCTAAATGGATATAGTTTGATTCGATCACGGAGTCACCTAGTGCAG	3440 fluorescence intensity (a.u.)
9	CGAGGCGAGCAAAGCGTGACGTGGCCACCTTCCCCGCCGCCGGAGTCACCTAGTGCAG	32600 fluorescence intensity (a.u.)
10	TCACCTGTCCTCCTTGGTCCAACTATGTCGAGAATCGATGCGGAGTCACCTAGTGCAG	3220 fluorescence intensity (a.u.)
11	GTTCTGGAGTCCATCCTCTCGGTCTTTAGCTGGCGTTACCCGGAGTCACCTAGTGCAG	20400 fluorescence intensity (a.u.)
12	GATAACCACATCATCTAAGAACGGAATGCCTTGTGCAAATCGGAGTCACCTAGTGCAG	4260 fluorescence intensity (a.u.)

# Further records.

row,Sequence,binding signal
1,CGCGCTTGACCCGTCGCGCGCCACGCCACGCCACGCCAGCCGGAGTCACCTAGTGCAG,11200 fluorescence intensity (a.u.)
2,AGACCCAAAATTCGTCATCACACACACAGACAGAAACAGACGGAGTCACCTAGTGCAG,3280 fluorescence intensity (a.u.)
3,AACAGACAACGACTATGACAACGTCAACCTCAAGCGGCCACGGAGTCACCTAGTGCAG,3250 fluorescence intensity (a.u.)
4,GCCTCCTAACCACGTCGGTTTCATTGCCCTGTCGCTGACCCGGAGTCACCTAGTGCAG,4880 fluorescence intensity (a.u.)
5,TTAACCCCGTCACGTCACCTCTCTCTCTCTCTACCGTCTCCGGAGTCACCTAGTGCAG,9720 fluorescence intensity (a.u.)
6,CTCATGTGAATGATTTGTCTGCATTGCTAGGTTGTGTCAGCGGAGTCACCTAGTGCAG,3430 fluorescence intensity (a.u.)
7,CCAACTTCTCGCCACCCCGTCACGACGAAGACGTTTGCTCCGGAGTCACCTAGTGCAG,3660 fluorescence intensity (a.u.)
8,ATTTGCTTACGGTTATCAACACCACTGCAGGCATCCATTGCGGAGTCACCTAGTGCAG,3680 fluorescence intensity (a.u.)
9,GAAGAGGATCGGTTGCATGGGTTGGATCAGGGCCGGAGTTCGGAGTCACCTAGTGCAG,3270 fluorescence intensity (a.u.)
10,CAACCGCGTCACGAGGAATTCCTCCACTCCGTTCAGTGATCGGAGTCACCTAGTGCAG,4650 fluorescence intensity (a.u.)
11,TGGCTGATTGTAGATTAAATTGGGTTGACACCTTTGCTATCGGAGTCACCTAGTGCAG,3720 fluorescence intensity (a.u.)
12,GCCTTGATTATCACCTCCTGTACAAGTGTTAGATACTTCTCGGAGTCACCTAGTGCAG,24200 fluorescence intensity (a.u.)
13,CAATGTCCAAACGCCTTTGTCTAAGAGAACTGGGCCAGAACGGAGTCACCTAGTGCAG,3610 fluorescence intensity (a.u.)
14,GACCTCCGGGTGACACAGAAGGTTAGGATAGCTCAAGACGCGGAGTCACCTAGTGCAG,3280 fluorescence intensity (a.u.)
15,GCTTCAAGACGAGAGGTGGTGAGTCACGCGTAGCAACCGGCGGAGTCACCTAGTGCAG,7630 fluorescence intensity (a.u.)
16,TTAGTCGAAAAGTCAATGGCGTCATACATTAAAATACGGACGGAGTCACCTAGTGCAG,4650 fluorescence intensity (a.u.)
17,TGTAGATGTCACGTCAGCGAAACCGTCCTCTGGAGGGTTGCGGAGTCACCTAGTGCAG,5850 fluorescence intensity (a.u.)
18,ATTGTATAAGTTAAATTTTAACTTACATGGTTGTGGAATGCGGAGTCACCTAGTGCAG,3590 fluorescence intensity (a.u.)
19,AATATGCTATCAATGTTATGGGCAAGGTTTATGTGCATTTCGGAGTCACCTAGTGCAG,3690 fluorescence intensity (a.u.)
20,ACATATATGCGTAAACAATTCATTGGTGGCCCAAGACATACGGAGTCACCTAGTGCAG,3520 fluorescence intensity (a.u.)
21,AAGGCCCACGACCACAAGCTTAGCAAGCCCTCTCTCGGTCCGGAGTCACCTAGTGCAG,34800 fluorescence intensity (a.u.)
22,AATCTTTGACCCGCTGTCAGTTCATCATCCGTCTACTCTACGGAGTCACCTAGTGCAG,25600 fluorescence intensity (a.u.)
23,ACATTTCTGATTTAGCTACATGTCATAGAGAGATTCAGTTCGGAGTCACCTAGTGCAG,3980 fluorescence intensity (a.u.)
24,GGACATACCTTTGTCCAGATTTACTGTATTAAAATGTGTCCGGAGTCACCTAGTGCAG,10100 fluorescence intensity (a.u.)
25,CGCTCCACAGGCTCGCGTGCCGCGGGATCACTCGATTCGACGGAGTCACCTAGTGCAG,37500 fluorescence intensity (a.u.)
26,TTGTTCAGTTGTGTCACCCCGGTCTCTAAACTTGGATTTGCGGAGTCACCTAGTGCAG,4380 fluorescence intensity (a.u.)
27,TGGTGGTCTTCTTTATCTTTACACATTGCCTTTGGCTAACCGGAGTCACCTAGTGCAG,3160 fluorescence intensity (a.u.)

# — publication PMC7819943, “Rice protein-binding microarrays: a tool to detect cis-acting elements near promoter regions in rice”
